Results from publication PMC3218035, “Nuclear Exportin Receptor CAS Regulates the NPI-1–Mediated Nuclear Import of HIV-1 Vpr” (PLoS ONE, 2011).
These are yes or no findings as the source states them, for the method shown. Some binding calls cover weakened binding; strength is not graded here.

Chains of the proteins cited; added tags and fusions are not shown. Lines headed by an entry give the natural chain unless they say otherwise; changes in a name come on top. Residues count along the entry.
UniProt P52294: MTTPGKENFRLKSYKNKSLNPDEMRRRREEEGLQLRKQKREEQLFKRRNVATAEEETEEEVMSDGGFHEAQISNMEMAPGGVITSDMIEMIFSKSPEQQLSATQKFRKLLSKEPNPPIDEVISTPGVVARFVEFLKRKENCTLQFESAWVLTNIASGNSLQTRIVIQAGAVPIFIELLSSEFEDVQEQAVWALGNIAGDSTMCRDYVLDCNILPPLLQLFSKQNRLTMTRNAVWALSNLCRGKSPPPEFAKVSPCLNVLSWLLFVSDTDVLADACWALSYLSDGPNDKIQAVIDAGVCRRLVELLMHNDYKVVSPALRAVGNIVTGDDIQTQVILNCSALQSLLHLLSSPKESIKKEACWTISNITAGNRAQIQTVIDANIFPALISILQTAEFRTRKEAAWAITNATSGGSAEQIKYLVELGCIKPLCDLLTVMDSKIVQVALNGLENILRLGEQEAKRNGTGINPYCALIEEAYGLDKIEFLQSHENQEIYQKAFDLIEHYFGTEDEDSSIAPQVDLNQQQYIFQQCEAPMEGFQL
GST-NPI-1 1–75 (IBB domain mutant): residues 1-75 of P52294
GST-NPI-1 76–451 (ARM repeat domain lacking the tenth ARM repeat): residues 76-451 of P52294
GST-NPI-1 404–541 (C-terminal region from the ninth ARM repeat to the acidic domain): residues 404-538 of P52294
UniProt O00629: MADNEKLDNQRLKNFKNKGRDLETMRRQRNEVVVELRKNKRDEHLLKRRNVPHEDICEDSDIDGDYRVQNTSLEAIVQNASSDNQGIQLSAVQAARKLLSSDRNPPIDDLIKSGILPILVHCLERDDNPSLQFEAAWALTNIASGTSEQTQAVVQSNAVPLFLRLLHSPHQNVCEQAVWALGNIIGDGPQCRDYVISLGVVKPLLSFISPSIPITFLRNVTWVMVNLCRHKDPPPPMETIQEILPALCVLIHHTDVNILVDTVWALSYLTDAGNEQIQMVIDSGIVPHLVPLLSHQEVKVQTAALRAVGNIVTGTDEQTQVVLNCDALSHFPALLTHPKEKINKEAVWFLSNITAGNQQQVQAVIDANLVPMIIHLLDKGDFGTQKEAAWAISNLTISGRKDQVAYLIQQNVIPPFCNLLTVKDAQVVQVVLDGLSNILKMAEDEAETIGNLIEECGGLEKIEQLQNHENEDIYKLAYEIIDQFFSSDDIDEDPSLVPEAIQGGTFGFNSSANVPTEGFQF
GST-Qip1 1–68 (IBB domain mutant): residues 1-67 of O00629
GST-Qip1 69–439 (ARM repeat domain lacking the tenth ARM repeat): residues 68-439 of O00629
GST-Qip1 392–537 (C-terminal region from the ninth ARM repeat to the acidic domain): residues 392-521 of O00629
UniProt P12520: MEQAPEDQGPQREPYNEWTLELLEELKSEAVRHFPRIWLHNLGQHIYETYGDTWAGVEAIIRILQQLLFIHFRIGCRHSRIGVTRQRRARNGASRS

How the values were obtained:
Test in all cases: pull-down; both purified
[1] = target: GST-NPI-1 404–541 (C-terminal region from the ninth ARM repeat to the acidic domain) (human) (UniProt P52294)
[2] = target: GST-Qip1 69–439 (ARM repeat domain lacking the tenth ARM repeat) (human) (UniProt O00629)
[3] = target: GST-NPI-1 1–75 (IBB domain mutant) (human) (UniProt P52294)
[4] = target: GST-tagged NPI-1 (importin α5), full-length (human) (UniProt P52294)
[5] = target: GST-Qip1 1–68 (IBB domain mutant) (human) (UniProt O00629)
[6] = target: GST-Qip1 392–537 (C-terminal region from the ninth ARM repeat to the acidic domain) (human) (UniProt O00629)
[7] = target: GST-tagged Qip1 (importin α3), full-length (human) (UniProt O00629)
[8] = target: GST-NPI-1 76–451 (ARM repeat domain lacking the tenth ARM repeat) (human) (UniProt P52294)

Measured: binding

Flag-mRFP-Flag-Vpr (from UniProt P12520 1-96)
binds: all assays above
